# Laboratory results: PubChem BioAssay AID2685 (National Center for Advancing Translational Sciences (NCATS), 2010)
# The list shows a part of the results. These are further read-outs of the screen, such as a control signal, another cell line or another target. No call is given for them. Most of these compounds were active or inconclusive in the main read-out, so they are no random draw. The note in brackets gives the kind of curve behind each potency; many fits are weak.
# Experiment: qHTS Assay for Lipid Storage Modulators in Drosophila S3 Cells;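 for cell number change: cells counted by Cell Tracker Red CMTPX staining in the red channel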
# Settings: BODIPY lipid droplet fluorescence, 18-24 h; for cell number change: measured here: cell count max response, cells fed with added oleic acid
# Outline: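 Laser-scanning cytometry quantifies lipid droplet accumulation (500–530 nm total intensity; droplet/cell object ratio) in oleic acid-fed (400 uM added) Drosophila S3 cells treated with a concentration series. 20 uM Triacsin C defined 100% inhibition.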
# [1] = measured here: cell number channel AC50, cells fed with added oleic acid
# [2] = measured here: lipid fluorescence (Fed channel) AC50, cells fed with added oleic acid
SMILES,AC50 [1],AC50 [2],cell number change [%]
O=C1Nc2ccc(S(=O)(=O)N3CCCCCC3)c3cccc1c23,"0.731 µM [rising, partial curve]","0.731 µM [rising, partial curve]",
Nc1c(C(=O)OCC2CCCO2)c2nc3ccccc3nc2n1C1CCCC1 (stereo not given),,"1.64 µM [rising, partial curve]",1.92
Cc1ccc(C)c(OCCC(=O)Nc2ccc(S(=O)(=O)N3CCCC3)cc2)c1,,"0.82 µM [falling, full curve]",-0.0684
Cc1ccc(OCCCC(=O)Nc2nc3ccccc3[nH]2)cc1,"8.2 µM [rising, single point]","4.61 µM [rising, full curve, poor fit]",32
CC(C)[C@H](NC(=O)[C@@H]1Cc2ccccc2CN1C(=O)OC(C)(C)C)C(=O)NC1CCCC1,,"29.1 µM [rising, single point]",-7.31
O=C(Nc1ccc2snnc2c1)Nc1cccc2ccccc12,,,-65.4
O=C(Nc1c(Cl)cccc1Cl)C1CCN(C(=O)c2cccs2)CC1,,,4.7
CC(=O)Nc1ccc(-c2cc3ccccc3o2)cc1,,,8.2
O=C(Cc1cccc(NC(=O)C2CCCN(C(=O)CCc3ccccc3)C2)c1)Nc1cccc(C(=O)N2CCCC2)c1 (stereo not given),,,-8.9
Cn1nc(C(C)(C)C)c([N+](=O)[O-])c1C(=O)N1CCOCC1,,"29.1 µM [rising, single point]",-10.1
CC(C)(C)c1cc[n+](C2=C([O-])c3ccccc3C(=O)/C2=N\S(=O)(=O)c2cccs2)cc1,"20.6 µM [falling, single point]","20.6 µM [falling, partial curve]",-51
COc1ccc(C(C)(C)C)cc1NC(=O)C1CCCO1 (stereo not given),"6.51 µM [rising, single point]","29.1 µM [rising, single point]",2.97
O=[N+]([O-])c1ccc(-c2cnc(SCc3ccccc3Cl)[nH]2)cc1,,,77.3
CN1C(=O)C(CC(=O)NC2CCCCC2)N(C)C1=O (stereo not given),"0.731 µM [falling, full curve, poor fit]",,-17.3
CC(=O)N1c2ccccc2N(Cc2ccc([N+](=O)[O-])cc2)C(=O)C1(C)C,,"6.51 µM [rising, partial curve]",-1.79
O=C(NCc1ccco1)c1cc2cc(Br)ccc2o1,"0.231 µM [rising, full curve, poor fit]","29.1 µM [rising, single point]",31.5
Cc1cc(C)c(-n2c(O)c(C=NCCN3CCOCC3)c(=O)[nH]c2=O)c(C)c1,,"29.1 µM [rising, single point]",15.2
COC(=O)c1cn(NC(=O)Cc2ccc(OC)c(OC)c2)c(=O)c2ccccc12,"20.6 µM [rising, single point]","18.4 µM [falling, single point]",41.4
Cc1sc(NC(=O)CCCC(=O)O)c(C(N)=O)c1-c1ccccc1,"4.11 µM [falling, single point]","2.91 µM [falling, partial curve]",11.5

SMILES,AC50 [1],AC50 [2],cell number change [%]
COc1ccccc1C(=O)Nc1ccc2c(c1)CN(C(=O)CSC)CC2,,"11.6 µM [falling, partial curve]",-16.3
O=C(N/N=C/c1ccccc1Cl)c1[nH]c2ccc(Br)cc2c1-c1ccccc1,,"16.4 µM [falling, single point]",-18
CC(C)(C)C1CCC(=NNC(=O)C2COc3ccccc3O2)CC1 (stereo not given),,"0.146 µM [rising, full curve, poor fit]",-1
CCc1ccc(C2CC(=O)Nc3c2c(=O)nc2c(C)cccn32)cc1 (stereo not given),"0.00461 µM [falling, full curve, poor fit]",,-28.8
O=C(Nc1nc2ccc([N+](=O)[O-])cc2s1)c1c(F)cccc1F,"6.51 µM [falling, single point]","3.66 µM [falling, partial curve, poor fit]",5.98
CC(C)(C)c1ccc(C(=O)NN=C2CCCC2)cc1,,"11.6 µM [falling, single point]",29.5
O=C(Nc1ccc(Cl)cc1F)C1CCN(S(=O)(=O)c2cccc3nonc23)CC1,,"6.51 µM [rising, single point]",8.11
Cn1c(=O)c2nnn(/N=C(\c3ccccc3)C3CC3)c2n(C)c1=O,,,-0.612
C=CCOc1cccc(/C=C2\C(=O)N(Cc3ccc(C)cc3)C(C)=C2C(=O)OC)c1,,"3.26 µM [rising, single point]",-0.141
NNC(=O)c1ccc(Cn2cc(Cl)cn2)cc1,"0.103 µM [rising, full curve, poor fit]","16.4 µM [rising, partial curve]",62
C[C@@H](NC(=O)Cn1ccc(N)nc1=O)c1cccc2ccccc12,,"0.651 µM [rising, single point]",-8.06
CC(C)NC(=O)C1CCN(C(=O)C(C(=O)c2ccccc2)n2cc(Cl)ccc2=O)CC1 (stereo not given),,"32.6 µM [falling, partial curve]",0.934
COc1ccc(/C=C/C(=O)NCCCc2ccccc2)cc1OC,"29.1 µM [falling, single point]","3.26 µM [rising, full curve, poor fit]",-56.5
COc1ccc(CCNC(=O)c2ccc(CNS(=O)(=O)c3cccc(Cl)c3)cc2)cc1OC,,,-29.8
O=C(O)c1ccccc1C(=O)NCC(O)COc1ccc(Cl)cc1 (stereo not given),,,27.4
COc1cccc(OC)c1OCCN1CCCC1,,,9.46
COc1cccc(C2/C(=C(\O)c3c(C)nc4c(C)cccn34)C(=O)C(=O)N2CCCN(C)C)c1OC (stereo not given),"6.51 µM [falling, full curve, poor fit]","5.8 µM [falling, full curve]",-30
CC(SCCc1ccccn1)C(=O)O (stereo not given),,"0.00461 µM [rising, full curve, poor fit]",39.7

# Shown bar-delimited: part of the list above.
SMILES | AC50 [1] | AC50 [2] | cell number change [%]
CCc1ccc(C2CC(=O)Nc3c2c(=O)nc2c(C)cccn32)cc1 (stereo not given) | 0.00461 µM [falling, full curve, poor fit] |  | -28.8
O=C(Nc1nc2ccc([N+](=O)[O-])cc2s1)c1c(F)cccc1F | 6.51 µM [falling, single point] | 3.66 µM [falling, partial curve, poor fit] | 5.98
